In patent publication US20140235820A1, “METHODS AND COMPOSITIONS FOR MODULATING THE Wnt PATHWAY” (Genentech, Inc., priority 2010, published 2014):
These are yes or no findings as the source states them, for the method shown. Some binding calls cover weakened binding; strength is not graded here.

Amino acid sequences for entries named in this document (tags omitted). A change or cut given only in a name is not applied to a line headed by its entry. Residues count along the entry.
UniProt O75581: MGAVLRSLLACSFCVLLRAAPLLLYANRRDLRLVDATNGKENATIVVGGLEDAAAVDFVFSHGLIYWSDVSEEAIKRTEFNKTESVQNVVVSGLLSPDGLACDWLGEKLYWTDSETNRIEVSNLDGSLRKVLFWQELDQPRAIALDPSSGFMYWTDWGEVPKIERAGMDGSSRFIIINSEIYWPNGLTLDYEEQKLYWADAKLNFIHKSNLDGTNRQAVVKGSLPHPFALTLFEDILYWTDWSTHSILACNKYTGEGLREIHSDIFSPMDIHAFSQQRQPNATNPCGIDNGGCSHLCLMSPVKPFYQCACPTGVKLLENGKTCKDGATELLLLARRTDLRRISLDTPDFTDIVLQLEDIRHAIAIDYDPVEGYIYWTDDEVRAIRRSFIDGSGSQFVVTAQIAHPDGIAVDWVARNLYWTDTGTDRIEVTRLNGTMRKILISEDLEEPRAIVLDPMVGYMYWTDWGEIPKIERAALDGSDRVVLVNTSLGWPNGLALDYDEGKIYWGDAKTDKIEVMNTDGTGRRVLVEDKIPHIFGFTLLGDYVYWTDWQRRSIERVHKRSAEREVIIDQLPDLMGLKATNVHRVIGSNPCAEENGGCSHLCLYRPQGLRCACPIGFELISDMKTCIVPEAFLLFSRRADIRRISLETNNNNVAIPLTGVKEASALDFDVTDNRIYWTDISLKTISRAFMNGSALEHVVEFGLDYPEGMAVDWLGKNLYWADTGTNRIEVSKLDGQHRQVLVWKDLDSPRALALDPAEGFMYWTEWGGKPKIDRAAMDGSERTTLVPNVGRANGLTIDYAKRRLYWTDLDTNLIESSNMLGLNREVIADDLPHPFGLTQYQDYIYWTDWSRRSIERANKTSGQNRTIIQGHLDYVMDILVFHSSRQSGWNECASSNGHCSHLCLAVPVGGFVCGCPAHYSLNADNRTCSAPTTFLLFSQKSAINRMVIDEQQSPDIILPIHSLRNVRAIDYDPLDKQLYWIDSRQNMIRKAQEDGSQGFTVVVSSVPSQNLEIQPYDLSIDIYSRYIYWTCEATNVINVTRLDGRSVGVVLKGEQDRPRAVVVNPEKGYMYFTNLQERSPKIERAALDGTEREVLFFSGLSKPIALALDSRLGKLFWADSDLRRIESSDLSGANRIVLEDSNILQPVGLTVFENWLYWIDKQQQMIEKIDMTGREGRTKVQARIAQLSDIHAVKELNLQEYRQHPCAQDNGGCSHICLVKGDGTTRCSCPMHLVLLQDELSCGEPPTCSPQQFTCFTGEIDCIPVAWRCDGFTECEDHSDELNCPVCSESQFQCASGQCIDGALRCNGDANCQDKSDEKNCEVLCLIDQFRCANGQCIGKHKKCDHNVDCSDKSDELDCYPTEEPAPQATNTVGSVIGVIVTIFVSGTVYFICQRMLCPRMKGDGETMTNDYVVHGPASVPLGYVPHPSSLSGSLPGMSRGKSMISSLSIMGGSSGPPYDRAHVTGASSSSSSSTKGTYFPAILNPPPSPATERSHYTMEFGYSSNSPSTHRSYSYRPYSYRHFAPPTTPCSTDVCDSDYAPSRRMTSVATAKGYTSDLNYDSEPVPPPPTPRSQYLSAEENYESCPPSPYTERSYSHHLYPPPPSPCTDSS
human LRP6 construct E1E4 (amino acids A20-Q1253): residues 20-1253 of O75581
human LRP6 construct E1E2 (amino acids A20-E631): residues 20-631 of O75581
human LRP6 construct E1 (amino acids A20-D325): residues 20-325 of O75581
UniProt Q9BQB4, residues 24-213: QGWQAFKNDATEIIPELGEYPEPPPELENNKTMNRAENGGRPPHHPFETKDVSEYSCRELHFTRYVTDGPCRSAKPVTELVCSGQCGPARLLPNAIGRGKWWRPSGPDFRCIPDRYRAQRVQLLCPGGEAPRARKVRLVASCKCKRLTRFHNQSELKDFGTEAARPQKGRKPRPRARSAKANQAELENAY

B1: Dkk1 Ile42Glu (ligand, human, UniProt O94907 32-266, looked up)
chain: TLNSVLNSNAEKNLPPPLGGAAGHPGSAVSAAPGILYPGGNKYQTIDNYQPYPCAEDEECGTDEYCASPTRGGDAGVQICLACRKRRKRCMRHAMCCPGNYCKNGICVSSDQNHFRGEIEETITESFGNDHSTLDGYSRRTTLSSKMYHTKGQEGSVCLRSSDCASGLCCARHFWSKICKPVLKEGQVCTKHRRKGSHGLEIFQRCYCGEGLSCRIQKDHHQASNSSRLHTCQRH
notes: also called Dkk1 I42E

Tests used:
[1] = molecular target: human LRP6 construct E1 (amino acids A20-D325) (human) (UniProt O75581); test: BLI (restates Example 5)
[2] = molecular target: human LRP6 construct E1E4 (amino acids A20-Q1253) (human) (UniProt O75581); test: BLI
[3] = molecular target: human LRP6 construct E1 (amino acids A20-D325) (human) (UniProt O75581); test: BLI
[4] = molecular target: human LRP6 construct E1E2 (amino acids A20-E631) (human) (UniProt O75581); test: BLI
[5] = molecular target: human LRP6 construct E1E2 (amino acids A20-E631) (human) (UniProt O75581); test: BLI affinity

Row | Molecule | binding [1] | binding [2] | binding [3] | binding [4] | binding [5]
1 | Sclerostin (wild type) (from UniProt Q9BQB4 24-213) (ligand) | binds | binds | binds | binds | 
2 | B1 |  |  |  |  | no binding (tested: >364-fold effect)
